Several values for one entry are separate records, joined by “and”; a condition that tells them apart may be missing. Equal values may be shown once. In all, about 410,000 compounds went through this assay and about 18,000 (4.4%) were called active. This list was built around the results that the source calls inconclusive (neither active nor inactive); the mix of calls is not that of the screen. Cut-off read from the data, not from the text of the source: active = activity change below about -60%; inconclusive = no clear call, values can overlap the other calls; inactive = above about -39%.
Test: qHTS Assay for inhibitors of the human cytomegalovirus (HCMV)
Details: HFF cells, HCMV-luciferase reporter, 72 h; at 57.5 µM; stronger effect = lower value
Procedure, shortened: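 Compounds were evaluated in HFFs infected with an HCMV luciferase reporter virus (MOI 1 PFU/cell). Luciferase in lysates collected 72 h post infection served as the replication measure.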
% is set by controls: 0 for no effect and ±100 for the full control effect.

Row | SMILES | activity change, negative = inhibition
1 | C=CCOc1ccc(Br)cc1/C=C1/SC(=Nc2ccc(C(=O)O)cc2)NC1=O | inactive: -14.8%
2 | COC(=O)c1cc2c(c3c4ccccc4n(S(=O)(=O)c4ccccc4)c13)C(=O)N(Cc1ccc(N(C)C)cc1)C2 | inactive: -14.2%
3 | O=C(CNS(=O)(=O)c1ccccc1)N/N=C/c1ccccc1[N+](=O)[O-] | active: -64.5%
4 | CCOC(=O)Cc1cnc(N)s1 | inconclusive: -41%
5 | COc1ccc(C2c3[nH]c4ccccc4c3CCN2CCCn2cccn2)c(C)c1C (stereo not given) | inactive: 9.21%
6 | Cc1ccnc(NS(=O)(=O)c2ccc(NC(=O)CC(C)c3ccccc3)cc2)n1 (stereo not given) | inconclusive: -51.8%
7 | CCOC(=O)c1c(NC(=O)Cn2nc([N+](=O)[O-])c(Br)c2C)sc2c1CCC(C)C2 (stereo not given) | inactive: 27.4%
8 | Cc1ccc(S(=O)(=O)N2CCOCC2)cc1C(=O)OCC(=O)Nc1ccc(Cl)cn1 | inconclusive: -40.7%
9 | CCOc1ccc(CNC(=O)c2cccc(NC(=O)N3CCSc4ncccc43)c2)cc1 | inconclusive: 0%
10 | O=C(NC1CCCCC1)C(c1ccco1)N(C(=O)c1csnn1)c1ccccc1 (stereo not given) | inactive: 0.885%
11 | COCCCNCCCCOc1ccc(Br)cc1Cl | inconclusive: -47.8%
12 | CS/C(N)=N/C(=S)Nc1cccc(Cl)c1 | inactive: 17.1%
13 | C=CCn1c(NCCc2ccccc2)nc2c1c(=O)n(C)c(=O)n2C | active: -82.1%
14 | CCCN1C(=O)/C(=C\c2ccncc2)SC1=Nc1ccccc1 | inconclusive: -42.7%
15 | CCc1ccc(N=C2NC(=O)/C(=C/c3ccc(OCC(=O)O)c(OC)c3)S2)cc1 | inactive: 8.28%
16 | O=C(c1cc2c(s1)CCCC2)N1CCN(Cc2ccc3c(c2)OCO3)CC1 | inconclusive: -57.1%
17 | Cc1ccc(N=Nc2c(N)[nH]n3c(=O)cc(C)nc23)cc1 | inconclusive: -48.3%
18 | CCC(C)NC(=S)NNC(=O)c1ccncc1 (stereo not given) | inactive: -22%
19 | CCCn1c(C)cc(/C=C(\C#N)C(=O)OCC(=O)N(CC)c2c(N)n(Cc3ccccc3)c(=O)[nH]c2=O)c1C | inactive: -10.6%
20 | COc1ccc(-n2nc3c(N4CCCC(C(=O)NCc5ccc(C)cc5)C4)nnc(C)c3c2C)cc1 (stereo not given) | active: -72.2%
21 | Cc1ccc(/C=N/Nc2cn[nH]c(=O)n2)o1 | inconclusive: -50.9%
22 | CCCNC(=O)c1cnn2c(C)c(Cc3c(C)cc(C)cc3C)c(C)nc12 | inconclusive: -55.8%

Row | SMILES | activity change, negative = inhibition
23 | COc1ccc(N2CCN(C(=O)c3ccc(CNS(=O)(=O)c4ccc(C)cc4)cc3)CC2)cc1 | inconclusive: -53.3%
24 | CC1(C(=O)O)CCN1C(=O)c1cccc(C(F)(F)F)c1 (stereo not given) | inactive: 3.31%
25 | Cc1nn(CC(=O)OCC(=O)NC(C)c2ccccc2)c(C)c1[N+](=O)[O-] (stereo not given) | inconclusive: -43.8%
26 | O=S(=O)(c1ccc(Cl)cc1)N1CCN(c2ncnc3sccc23)CC1 | active: -68.6%
27 | Cc1ccc(S(=O)(=O)N2CCN(C(=O)C3CCN(C(=O)c4ccccc4C)CC3)CC2)cc1C | inconclusive: -48.3%
28 | COc1cccc(C2CC(=O)Nc3cc4c(cc32)OCO4)c1OC(C)C (stereo not given) | inconclusive: -41.7%
29 | COc1ccc(C2=CCC3CCCCN3C2)cc1OC (stereo not given) | inactive: 16.9%
30 | CCN(CC)C(=O)CSc1nc2c(sc(=S)n2-c2ccccc2)c(=O)n1Cc1ccco1 | active: -67.5%
31 | CN(C)C1=NC[C@H](Cc2ccccc2)N1CCc1ccc(F)cc1 | inactive: -5.86%
32 | O=c1oc2ccccc2cc1-c1nnc(Nc2ccc(Cl)cc2Cl)s1 | inconclusive: -50.1%
33 | COc1ccc(CCNC(=O)CCCc2ccccc2)cc1OC | inactive: -29.4%
34 | C=C(C)C1CC=C(C)/C(=N/NC(=O)c2cccc([N+](=O)[O-])c2)C1 (stereo not given) | inconclusive: -40.2%
35 | O=C(c1cccs1)N1CCN(S(=O)(=O)c2cccs2)CC1 | inconclusive: -42.3%
36 | CCn1cc(C(=O)NCc2ccccc2OC)c(=O)c2cc(S(=O)(=O)N(C)C)ccc21 | inconclusive: -40%
37 | CCN1CCN(C(=S)Nc2ccc3nc(N4CCN(C)CC4)cc(C)c3c2)CC1 | inconclusive: -59%
38 | N#CC(c1ccncc1)(c1ncc(C(F)(F)F)cc1Cl)N1CCOCC1 (stereo not given) | inconclusive: -47.4%
39 | CCCOc1ccc(/C=N/Nc2ccccc2[N+](=O)[O-])c(O)c1 | inconclusive: -58.5%
40 | COc1ccc(NC(=S)NNC(=O)COc2ccc(Cl)cc2Cl)cc1 | inconclusive: -40%
41 | CCCCCOC(=O)C1C(c2ccccc2)C(C(=O)O)C1c1ccccc1 (stereo not given) | active: -93.1%
42 | CC1=CC(C)C2COC(c3ccc[n+](C)c3)C1C2C (stereo not given) | inconclusive: -52%
43 | C[C@]12CCC3C(CC[C@H]4CCCC[C@]34C)C1CC[C@@]2(O)CNCCO (stereo not given in full) | inactive: -0.981%
44 | CC(=O)Nc1ccc(NS(=O)(=O)c2cc(-c3cnc(C4CC4)o3)ccc2C)cc1 | inactive: 14.4%

Row | SMILES | activity change, negative = inhibition
45 | Cc1ccsc1C(=O)Nc1cccc(-n2cnnn2)c1 | inconclusive: -42.5%
46 | COc1cccc(NC(=O)Cn2cc(C(=O)c3ccccc3)c3ccccc32)c1 | inconclusive: -47.2%
47 | Cc1nc2ccccn2c1C(=O)N/N=C/c1ccc2c(c1)OCO2 | inactive: 6.9%
48 | CC(=O)Nc1ccc(C(=O)OCC(=O)c2cccc([N+](=O)[O-])c2)cc1 | inconclusive: -44.5%
49 | O=C1c2cccc(OCC(=O)N3CCCc4ccccc43)c2CCN1Cc1ccc(Br)cc1 | inconclusive: -51.5%
50 | CCN(CC)S(=O)(=O)c1ccc(S(=O)(=O)N(CC(=O)Nc2ccccc2)Cc2ccco2)cc1 | inconclusive: -48.3%
51 | Cc1ccc(N(c2ncnc(N)c2[N+](=O)[O-])C2CCCCC2)cc1 | inconclusive: -57.9%
52 | COc1cc(F)ccc1-c1csc(C(O)c2ccc(F)c(F)c2)n1 (stereo not given) | inactive: -16.8%
53 | CCOC(=O)C1CCN(C(=O)CCc2nnc3ccc(NCCCN4CCCC4=O)nn23)CC1 | inconclusive: -51.5%
54 | N#C/C(=C/c1ccc(Sc2nc3ccccc3[nH]2)o1)c1cccc(Br)c1 | active: -85.3%
55 | O=C(CCc1nnc(-c2ccc3c(c2)OCO3)o1)N(Cc1ccncc1)CC1CCCO1 (stereo not given) | inconclusive: -48.6%
56 | Nc1nc(Sc2ccc(C(F)(F)F)cn2)n[nH]1 | inconclusive: -49.1%
57 | Cc1ccc(NC(=O)NCC2CC2(Cl)Cl)cc1 (stereo not given) | inactive: 9.73%
58 | Cc1nn(C)c2c1c(C(F)(F)F)cc(=O)n2CC(=O)N1CCCCC1C (stereo not given) | inactive: -6.63%
59 | CCC(C)(C(=O)NC1CCCC1)N(Cc1cccs1)C(=O)c1ccc2c(c1)OCO2 (stereo not given) | inconclusive: -46.7%
60 | O=C(CSc1nc2ccccc2c(=O)n1Cc1ccco1)c1ccc(F)cc1 | inconclusive: -55.8%
61 | Cc1nc(-c2ccc(S(=O)(=O)N3CCN(c4cccc(C)c4C)CC3)cc2)co1 | inconclusive: -57.2%
62 | CCCCCCCCCOC1OC(CO)C(O)C(O)C1NC(C)=O (stereo not given) | inconclusive: -51.7%
63 | CN1CCN(C(=O)c2cc3sc4ccccc4c3s2)CC1 | inactive: 122%
64 | O=C(Nc1ccc2c(c1)OCO2)C1Cc2c(-c3ccccc3Oc3ccccc3)ccnc2O1 (stereo not given) | inconclusive: -40.2%
65 | CCc1ccccc1OCC(=O)N1CCN(c2ncccn2)CC1 | inconclusive: -40.5%
66 | COc1ccc(C)cc1NC(=O)CSc1nnc(COc2ccccc2)n1Cc1ccco1 | inactive: 42.7%

In another format: 24 of the compounds above.
Row,SMILES,"activity change, negative = inhibition"
40,COc1ccc(NC(=S)NNC(=O)COc2ccc(Cl)cc2Cl)cc1,inconclusive: -40%
43,C[C@]12CCC3C(CC[C@H]4CCCC[C@]34C)C1CC[C@@]2(O)CNCCO (stereo not given in full),inactive: -0.981%
44,CC(=O)Nc1ccc(NS(=O)(=O)c2cc(-c3cnc(C4CC4)o3)ccc2C)cc1,inactive: 14.4%
45,Cc1ccsc1C(=O)Nc1cccc(-n2cnnn2)c1,inconclusive: -42.5%
47,Cc1nc2ccccn2c1C(=O)N/N=C/c1ccc2c(c1)OCO2,inactive: 6.9%
48,CC(=O)Nc1ccc(C(=O)OCC(=O)c2cccc([N+](=O)[O-])c2)cc1,inconclusive: -44.5%
49,O=C1c2cccc(OCC(=O)N3CCCc4ccccc43)c2CCN1Cc1ccc(Br)cc1,inconclusive: -51.5%
50,CCN(CC)S(=O)(=O)c1ccc(S(=O)(=O)N(CC(=O)Nc2ccccc2)Cc2ccco2)cc1,inconclusive: -48.3%
51,Cc1ccc(N(c2ncnc(N)c2[N+](=O)[O-])C2CCCCC2)cc1,inconclusive: -57.9%
52,COc1cc(F)ccc1-c1csc(C(O)c2ccc(F)c(F)c2)n1 (stereo not given),inactive: -16.8%
53,CCOC(=O)C1CCN(C(=O)CCc2nnc3ccc(NCCCN4CCCC4=O)nn23)CC1,inconclusive: -51.5%
54,N#C/C(=C/c1ccc(Sc2nc3ccccc3[nH]2)o1)c1cccc(Br)c1,active: -85.3%
55,O=C(CCc1nnc(-c2ccc3c(c2)OCO3)o1)N(Cc1ccncc1)CC1CCCO1 (stereo not given),inconclusive: -48.6%
56,Nc1nc(Sc2ccc(C(F)(F)F)cn2)n[nH]1,inconclusive: -49.1%
57,Cc1ccc(NC(=O)NCC2CC2(Cl)Cl)cc1 (stereo not given),inactive: 9.73%
58,Cc1nn(C)c2c1c(C(F)(F)F)cc(=O)n2CC(=O)N1CCCCC1C (stereo not given),inactive: -6.63%
59,CCC(C)(C(=O)NC1CCCC1)N(Cc1cccs1)C(=O)c1ccc2c(c1)OCO2 (stereo not given),inconclusive: -46.7%
60,O=C(CSc1nc2ccccc2c(=O)n1Cc1ccco1)c1ccc(F)cc1,inconclusive: -55.8%
61,Cc1nc(-c2ccc(S(=O)(=O)N3CCN(c4cccc(C)c4C)CC3)cc2)co1,inconclusive: -57.2%
62,CCCCCCCCCOC1OC(CO)C(O)C(O)C1NC(C)=O (stereo not given),inconclusive: -51.7%
63,CN1CCN(C(=O)c2cc3sc4ccccc4c3s2)CC1,inactive: 122%
64,O=C(Nc1ccc2c(c1)OCO2)C1Cc2c(-c3ccccc3Oc3ccccc3)ccnc2O1 (stereo not given),inconclusive: -40.2%
65,CCc1ccccc1OCC(=O)N1CCN(c2ncccn2)CC1,inconclusive: -40.5%
66,COc1ccc(C)cc1NC(=O)CSc1nnc(COc2ccccc2)n1Cc1ccco1,inactive: 42.7%

Later entries.

Row | SMILES | activity change, negative = inhibition
67 | CCCCNC(=O)C1CC(c2c(Cl)cccc2Cl)=NO1 (stereo not given) | inconclusive: -41.6%
68 | COc1ccc(-c2nc3c(s2)CCc2onc(-c4ccc(OC)cc4)c2-3)cc1 | inconclusive: -45.6%
69 | CC1CCC(C(C)C)C(OC(=O)Cn2c(-c3ccc(Br)cc3)[n+](C)c3ccccc32)C1 (stereo not given) | active: -111% and active: -98.7%
70 | CCCC(=O)Nc1ccc(C(=O)n2ccc(C)n2)cc1 | inconclusive: -44.6%
71 | CCCOc1ccc(NC(=O)CC2C(=O)N(c3ccc(OCC)cc3)C(=S)N2C2CC2)cc1 (stereo not given) | inconclusive: -53%
72 | COc1ccc(-c2nc3c(-c4ccc(F)cc4)cnn3cc2C)cc1F | inconclusive: -41.6%
73 | CCOC(=O)C1CCCN(c2c(N3CCN(C)CC3)c(=O)c2=O)C1 (stereo not given) | inactive: -35.2%
74 | CC(=O)Nc1cccc(C(=O)OCCCOc2ccc(F)cc2)c1 | inconclusive: -41.8%
75 | O=C(O)c1cn(-c2ccc(F)cc2)c(=O)c2ccccc12 | inconclusive: -59.8%
76 | Cc1cccc(C)c1NC(=O)COC(=O)Cc1ccsc1 | inconclusive: -40.8%
77 | C=CCN1C(c2cccc(C(F)(F)F)c2)=CS/C1=C(/C#N)c1nnc(N2CCOCC2)n1-c1ccccc1 | inconclusive: -56.8%
78 | C=CCN=C1NC(c2ccc(Cl)cc2)C(C(=O)OC)=C(C)N1C (stereo not given) | inconclusive: -56.1%
79 | CCOc1ccc(S(=O)(=O)N2CCCC(C(=O)NCc3ccncc3)C2)cc1C (stereo not given) | active: -76%
80 | Cc1ccccc1OCC(=O)NC1CCCCCCC1 | inconclusive: -40.6%
81 | CC1C(=O)Nc2ccc(S(=O)(=O)N3CCN(c4cccc(Cl)c4)CC3)cc2NC1=O (stereo not given) | inactive: -35.2%
82 | C[C@@H]1CN([C@@H](C)CO)S(=O)(=O)c2ccc(-c3cccc(C#N)c3)cc2O[C@@H]1CN(C)C(=O)c1ccc(F)cc1 | inactive: -23.5%
83 | O=C(CCc1nc2cccnc2n1-c1ccccc1)Nc1ccc(Cl)c(Cl)c1 | inconclusive: -59.1%
84 | O=C(NCCNc1ccc([N+](=O)[O-])cc1C(F)(F)F)c1ccccc1 | inconclusive: -53.5%
85 | OC[C@@H]1CN(Cc2cccs2)C[C@H](n2cnc3c(N4CCCC4)ncnc32)O1 | inactive: 40.7%
